This passage reports binding results from patent US20110312505A1.

Chains of the proteins cited; added tags and fusions are not shown. Residues count along the entry.
UniProt Q99856: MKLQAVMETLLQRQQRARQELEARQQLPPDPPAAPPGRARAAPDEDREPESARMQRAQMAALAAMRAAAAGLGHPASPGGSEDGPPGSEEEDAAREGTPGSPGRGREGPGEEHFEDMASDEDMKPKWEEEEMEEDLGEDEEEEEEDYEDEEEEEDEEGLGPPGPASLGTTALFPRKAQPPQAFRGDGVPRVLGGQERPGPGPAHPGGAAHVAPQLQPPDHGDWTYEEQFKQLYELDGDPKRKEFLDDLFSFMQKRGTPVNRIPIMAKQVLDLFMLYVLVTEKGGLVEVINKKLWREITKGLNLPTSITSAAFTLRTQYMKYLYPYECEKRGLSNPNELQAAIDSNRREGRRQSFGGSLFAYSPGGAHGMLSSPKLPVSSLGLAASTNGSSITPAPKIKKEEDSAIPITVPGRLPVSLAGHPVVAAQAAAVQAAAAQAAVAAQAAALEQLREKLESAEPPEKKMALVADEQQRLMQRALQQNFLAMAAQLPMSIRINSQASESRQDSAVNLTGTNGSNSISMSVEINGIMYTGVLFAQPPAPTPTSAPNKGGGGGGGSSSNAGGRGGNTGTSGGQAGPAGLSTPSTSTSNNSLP
UniProt P09871, residues 16-688: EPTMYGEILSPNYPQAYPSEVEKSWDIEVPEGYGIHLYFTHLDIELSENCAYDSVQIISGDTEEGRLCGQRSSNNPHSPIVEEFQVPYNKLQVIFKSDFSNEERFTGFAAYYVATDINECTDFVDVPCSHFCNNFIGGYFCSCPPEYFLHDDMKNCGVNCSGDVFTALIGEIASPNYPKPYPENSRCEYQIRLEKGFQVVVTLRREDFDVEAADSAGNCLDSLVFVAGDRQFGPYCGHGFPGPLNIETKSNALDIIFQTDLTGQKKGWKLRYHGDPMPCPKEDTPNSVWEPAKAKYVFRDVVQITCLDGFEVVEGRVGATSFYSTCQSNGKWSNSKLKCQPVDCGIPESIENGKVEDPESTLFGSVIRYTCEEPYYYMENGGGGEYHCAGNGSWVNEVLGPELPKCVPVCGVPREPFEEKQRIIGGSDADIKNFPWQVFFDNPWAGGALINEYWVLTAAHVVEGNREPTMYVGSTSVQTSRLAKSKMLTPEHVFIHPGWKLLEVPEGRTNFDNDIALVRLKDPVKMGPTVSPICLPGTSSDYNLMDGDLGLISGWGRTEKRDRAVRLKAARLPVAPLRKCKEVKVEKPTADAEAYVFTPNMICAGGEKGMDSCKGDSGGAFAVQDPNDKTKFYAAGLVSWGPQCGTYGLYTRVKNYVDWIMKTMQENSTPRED

Test [1] addresses human B cell regulator of IgH transcription (BRIGHT) (human) (UniProt Q99856). As to the kind of experiment: ELISA, E. coli lysate with scFv on antigen-coated wells; + means >3-fold signal over unrelated antigen. For orientation: An ELISA detects its analyte on a solid surface through an enzyme-linked reagent.
In test [2] the target is human complement protein C1s (human) (UniProt P09871). The description is as above.

These are yes or no findings as the source states them, for the method shown. Some binding calls cover weakened binding; strength is not graded here.

B1: anti-Bright scFv 1.3L-1.3H (scFv)
scFv: DIVMTQSPASLAVSLGQRATISCRASESVDSYGNSFMHWYQQKPGQPPKLLIYLASNLESGVPARFSGSGSRTDFTLTIDPVEADDAVTYYCQQNNEDPRTFGGGTKLEIKGGGGSGGGGSGGGGSGGGGSEVQLVESGGGLVQPGGSRKLSCAASGFTFSSFGMHWVRQAPEKGLEWVAYISSGSRTIYYADSVKGRFTISRDNPKNTLFLQMTSLRSEDTAIYYCAREGYAYDVDYWGQGTTLTVSS
Turning to B1, the binding result in test [1] is listed as “binds”.

B2: anti-C1s scFv 2.2L-2.2H (scFv)
scFv: DIVMTQSPASLAVSLGQRATISCRASESVDSYGNSFMHWYQQKPGQPPKLLIYRASNLESGIPARFSGSGSRTDFTLTINPVEADDVTTYYCQQSNEDPWTFGGGTKLEIKGGGGSGGGGSGGGGSGGGGSEVKLVESGGGFVKPGGSLKLSCAASGFTFSTYGMSWVRQTPEKRLEWVASISAGGTTYYSDSVKGRFTISRDNARNILYLQMSSLRSEDTAMYYCARWLLLAYWGQGTLVTSSA
For B2, in test [2], the binding entry was “binds”.

B3: anti-Bright scFv 1.4L-1.4H (scFv)
scFv: DIVMTQSPAIMSASPGEKVTITCSASSSVSYMHWFQQKPGTSPKLWIYSTSNLASGVPARFSGSGSGTSYSLTISRVEAEDAATYYCQQRSSYPLTFGAGTKLEIKGGGGSGGGGSGGGGSGGGGSEVQGVESGGGLVQPGGSRKLSCAASGFTFSSFGMHWVRQAPEKGLEWVAYISSGSSNIFYSDTVKGRFTISRDNPKNTLFLQMTSLRSEDTAMYYCARYDYGKDFDYWGQGTTLTVSS
Take B3: the binding entry in test [1] is recorded as “binds”.

B4: anti-C1s scFv 2.1L-2.1HA (scFv)
scFv: DVLMTQTPLSLPVSLGDQASISCRSSQSIVHSNGDTYLEWYLQKPGQSPKLLVYKLSNRFSGVPDRFSGSGSGTDFTLKISRVEAEDLGVYYCFQGSHVPLTFGAGTKLEIKGGGGSGGGGSGGGGSGGGGSQVQLQQSGAELARPGASVKMSCKASGYTFTSYTMHWVKQRPGQGLEWIGYINPSSGYTNYNQKFKDKATLTADKSSSTANMQLSSLTSEDSAVYYCARSDRYDGYFDYWGQGTTLTVSSA
With B4, in test [2], the binding entry is reported as “binds”.
